The values that follow come from PubChem BioAssay AID493014 (National Center for Advancing Translational Sciences (NCATS), 2011).

The nature of this assay: qHTS Assay to Find Inhibitors of Chronic Active B-Cell Receptor Signaling. The note with it: ABC-DLBCL IkBa-CBG/CBR reporter, luminescence ratio (green luciferase fused to IkBa over red control in TMD8 lymphoma cells), 4 h. The essentials:
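TMD8 human ABC-DLBCL cells with doxycycline-inducible IκBα–green luciferase fusion and unfused red luciferase, in 0.5% FBS medium; compounds up to 46 uM, 4 h at 37C. Green/red luminescence ratio, filter-overlap corrected, fitted to concentration-response curves.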
Background: qHTS replaces the single test concentration by a dilution series.

Setting [1] is: measured here: CBR red luminescence, cell number.
Where [2] appears, read: measured here: IkBa-CBG green luminescence.

The other results are listed elsewhere or left out. Shown are side measurements of this screen, not its main read-out; they come without a call. Most of these compounds were active or inconclusive in the main read-out, so they are no random draw. Potencies come from curve fits of mixed quality, noted in brackets.

On to `COC(=O)c1cc2sccc2n1Cc1ccc(C)cc1`, for which the AC50 under setting [1] is 2.51 µM [rising, full curve, poor fit].

Take `COc1ccc(Br)cc1[C@H]1[C@@H]2C=CCC[C@@]2(C)C(=O)N1Cc1ccccc1`: the AC50 under setting [1] is 12.6 µM [falling, partial curve, poor fit].

As to `COc1ccc(-c2csc(NC(=O)c3ccccc3F)n2)cc1`, the half-maximal activity concentration (AC50) under setting [1] is 7.94 µM [rising, partial curve].

Take `CCOC(=O)C(C)n1cnc2c(nnn2-c2cccc(Cl)c2)c1=O` (centres undefined): under setting [1], the AC50 was 3.26 µM [falling, single point].

On to `Cc1ccc(OCc2ccc(C(=O)N3CCOCC3)cc2)cc1C`, for which, under setting [1], the AC50 was 3.26 µM [falling, partial curve].

On to `Cc1occc1C(=O)N/N=C/c1ccccc1[N+](=O)[O-]`, for which, under setting [1], the half-maximal activity concentration (AC50) was 11.2 µM [falling, partial curve, poor fit].

In the case of `Cc1ccccc1OCC(=O)Nc1ccc(NC(=O)c2ccco2)cc1`, the AC50 under setting [1] is 35.5 µM [rising, partial curve, poor fit].

On to `Oc1ccccc1/C=N/N1CCCCC1`, for which the AC50 under setting [1] is 7.08 µM [rising, full curve, poor fit].

For the molecule `CC(C)CN=CC1=C(O)c2ccccc2C1=O`, the concentration at half-maximal activity (AC50) under setting [1] was 10 µM [falling, partial curve, poor fit].

Turning to `Cc1cc(C)n(CCN(C)Cc2nc(Cc3ccccc3F)no2)n1`, the AC50 under setting [1] is 2.82 µM [falling, full curve].

Take `COc1ccc(/C=C(\NC(=O)c2ccccc2)C(=O)N2CCCCC2)cc1OC`: the concentration at half-maximal activity (AC50) under setting [1] was 35.5 µM [rising, single point].

As to `O=C(COC(=O)CNC(=O)c1ccccc1)NC1CCCCC1`, the half-maximal activity concentration (AC50) under setting [1] was 11.6 µM [rising, partial curve].

Take `CN(C(=O)c1ccc2nc(N)sc2c1)c1ccccc1`: the AC50 under setting [1] is 3.55 µM [rising, full curve, poor fit].

Take `CNC(=S)N/N=C/c1ccc(N2CCOCC2)s1`: the AC50 under setting [1] was 3.55 µM [falling, full curve, poor fit] and the AC50 under setting [2] is 5.01 µM [falling, full curve].

Turning to `O=C(CN1CCN(c2ccccc2F)CC1)c1c[nH]c2ccc(F)cc12`, the AC50 under setting [1] is 8.2 µM [falling, partial curve, poor fit].

In the case of `CCCCn1c(O)c(/C=C2\C=Nc3ccccc32)c(=O)[nH]c1=O`, the AC50 under setting [1] was 15.8 µM [falling, single point].

As for `COc1ccc2c(c1)C(C)=CC(C)(C)N2S(=O)(=O)c1ccc(Br)cc1`, the half-maximal activity concentration (AC50) is 3.98 µM [rising, full curve] under setting [1] and 3.98 µM [falling, full curve] under setting [2].

For `CC(=O)Nc1cccc(NC(=O)CSc2ccc(-c3ccccn3)nn2)c1`, the AC50 under setting [1] is 5.62 µM [rising, partial curve, poor fit].

Turning to `Cc1ccc(S(=O)(=O)Nc2c(O)c3ccccc3oc2=O)cc1C`, under setting [1], the AC50 was 4.47 µM [falling, partial curve, poor fit].

As for `Cc1nc2ncnn2c(C)c1CCC(=O)NCc1ccc2c(c1)OCO2`, the concentration at half-maximal activity (AC50) under setting [1] is 1.41 µM [rising, full curve, poor fit].

Regarding `O=C(CSc1nccn(-c2ccc(F)c(F)c2)c1=O)NC1CCCC1`, the AC50 under setting [1] is 29.1 µM [falling, single point].

Regarding `Nc1nc(-c2c(Cl)cccc2Cl)no1`, under setting [1], the AC50 is 0.1 µM [rising, full curve, poor fit].

Take `Cc1c(N=CN2CCOCC2)c(=O)n(C)c(=O)n1C`: the AC50 under setting [1] is 5.17 µM [rising, full curve, poor fit].

Turning to `O=c1c2ccccc2nc2n1C(CBr)CN2` (centres undefined), the concentration at half-maximal activity (AC50) under setting [1] was 35.5 µM [rising, partial curve, poor fit].

Take `O=C1NC(=S)S/C1=C\C=C\c1ccc([N+](=O)[O-])o1`: the AC50 is 35.5 µM [falling, single point] under setting [1] and 35.5 µM [rising, single point] under setting [2].

As for `Nc1nc(/C=C/c2cccnc2)nc(-c2ccccc2O)n1`, the half-maximal activity concentration (AC50) under setting [2] is 0.562 µM [rising, full curve, poor fit].

Consider `OC(COCC(F)(F)C(F)(F)C(F)(F)C(F)F)Cn1c2ccc(Cl)cc2c2cc(Cl)ccc21` (centres undefined), for which the concentration at half-maximal activity (AC50) runs as follows: under setting [1], 23.1 µM [falling, single point]; under setting [2], 6.51 µM [rising, partial curve, poor fit].

Take `CC(=O)c1c(C)[nH]c(C2=NNC(=NC(C)(C)C)SC2)c1C`: the half-maximal activity concentration (AC50) under setting [1] is 31.6 µM [falling, single point].

Take `Cc1ccccc1OCC(=O)Nc1cc(S(=O)(=O)N2CCOCC2)ccc1N1CCCC1`: the half-maximal activity concentration (AC50) under setting [1] is 1.64 µM [falling, full curve].

On to `Cc1cc(C)n2ncc(/C(N)=N/OC(=O)Nc3ccc(Cl)cc3)c2n1`, for which the half-maximal activity concentration (AC50) under setting [1] is 8.91 µM [rising, partial curve, poor fit].

As to `Cc1ccc2c(C)ccc(O)c2n1`, the concentration at half-maximal activity (AC50) under setting [1] was 9.2 µM [rising, partial curve].

As for `CN1C(=O)NC(c2ccc([N+](=O)[O-])cc2)C2=C1CC(C)(C)CC2=O` (centres undefined), under setting [1], the AC50 was 31.6 µM [rising, single point].

Consider `CCc1cc(C(=O)NNC(=S)Nc2cc(C)ccc2C)cs1`, for which the concentration at half-maximal activity (AC50) under setting [1] was 0.82 µM [falling, full curve].

In the case of `O=C(c1ccccc1)N1CCN(C(=O)C23CC4CC(CC(C4)C2)C3)CC1`, the AC50 under setting [1] is 1.78 µM [falling, partial curve].

For `CS(=O)(=O)c1ccc2nc(NC(=O)CCNC(=O)c3ccc([N+](=O)[O-])cc3)sc2c1`, the concentration at half-maximal activity (AC50) under setting [1] is 7.31 µM [rising, partial curve].

Turning to `CCC(Sc1nc2cc(OC)c(OC)cc2c(=O)n1Cc1ccco1)C(=O)NCCOC` (centres undefined), the concentration at half-maximal activity (AC50) under setting [1] was 5.01 µM [falling, partial curve, poor fit].

As to `C=CCOC(=O)CN1C(=O)c2ccccc2C1=O`, the AC50 under setting [1] is 2.24 µM [falling, partial curve, poor fit].

Regarding `CN=C1SC(CC(=O)Nc2sc(C)c(C)c2C(=O)OC)C(=O)N1C` (centres undefined), under setting [1], the AC50 was 3.16 µM [rising, single point].

`CCOC(=O)c1c(C)[nH]c(C)c1C(=O)COC(=O)CNC(=O)c1ccc(OCC)cc1`: under setting [1], the AC50 is 4.61 µM [rising, partial curve, poor fit].

With `CC1(C(=O)NCC2CCCO2)Oc2cccnc2NC1=O` (centres undefined), under setting [1], the AC50 was 0.112 µM [rising, full curve, poor fit].

Regarding `CCOc1ccccc1C1CC(c2cccc(NS(C)(=O)=O)c2)=NN1C(=O)c1ccccc1` (centres undefined), the concentration at half-maximal activity (AC50) under setting [1] is 20.6 µM [falling, single point].

Regarding `COc1ccc(C(CNC(=O)c2cc3ccccc3cc2OC)N2CCCC2)cc1` (centres undefined), under setting [1], the AC50 was 32.6 µM [rising, single point].

In the case of `O=C(Nc1ccc(Cl)cc1)c1cccc(S(=O)(=O)Nc2ccccn2)c1`, the concentration at half-maximal activity (AC50) under setting [1] was 0.794 µM [falling, partial curve, poor fit].

Turning to `Cc1ccc2nc(/C(C#N)=N/O)[nH]c2c1`, under setting [1], the AC50 was 2.06 µM [falling, partial curve, poor fit].

As for `CCCC(=O)Nc1nnc(-c2ccco2)s1`, under setting [1], the concentration at half-maximal activity (AC50) is 32.6 µM [falling, single point].

In the case of `Nc1ccc(C(=O)c2cccs2)cc1[N+](=O)[O-]`, the half-maximal activity concentration (AC50) under setting [1] is 7.94 µM [rising, partial curve].

`O=C(Nc1ccc(Cl)cc1)N1CCOCC1`: the AC50 under setting [1] was 0.501 µM [rising, full curve, poor fit].

As to `O=C(Nc1ccc(F)cc1)c1cc2ccccc2o1`, the AC50 under setting [1] is 10 µM [falling, partial curve].

Regarding `Cc1cccc(C(=O)O/N=C/c2c(Cl)n(C)c3ccccc23)c1`, under setting [1], the AC50 was 11.6 µM [rising, partial curve].

Consider `CCCCC[n+]1ccn(C2=C([O-])c3ccccc3C(=O)/C2=N\S(=O)(=O)c2ccccc2)c1`, for which the half-maximal activity concentration (AC50) under setting [1] was 0.794 µM [falling, partial curve, poor fit].

For the molecule `O=C1CCCc2c1cc(C(=O)Nc1ccc(Br)cn1)c(=O)n2-c1ccccc1`, under setting [1], the AC50 was 0.00517 µM [rising, full curve, poor fit].

In the case of `COc1ccc(/C=C2\SC(=S)N(CCC(=O)Nc3cccc(O)c3)C2=O)cc1`, the concentration at half-maximal activity (AC50) under setting [1] was 2.51 µM [falling, full curve].

Take `Cn1c(SCn2nnc3ccccc3c2=O)nc2ccccc2c1=O`: under setting [1], the concentration at half-maximal activity (AC50) is 0.631 µM [falling, full curve, poor fit].

For `CCCCCCCN1C(Nc2ccccc2)=NC[C@@H]1CC(C)C`, the half-maximal activity concentration (AC50) under setting [1] was 5.62 µM [falling, partial curve, poor fit].

For the molecule `CCOc1cc(N2CCOCC2)c(OCC)cc1NC(=O)c1ccccc1`, the AC50 under setting [1] is 3.98 µM [rising, full curve].

In the case of `COc1ccc(OC)c(C(C)NC(=O)Nc2cccc(C(C)=O)c2)c1` (centres undefined), the concentration at half-maximal activity (AC50) under setting [1] was 10 µM [rising, partial curve, poor fit].

As for `COC(=O)C1CCN(C(=O)c2c(-c3ccccc3Cl)noc2C)CC1`, the AC50 under setting [1] is 29.1 µM [rising, single point].

On to `O=C(O)c1ccc(N=Cc2c(O)ccc3oc4c(c23)CCCC4)cc1`, for which the concentration at half-maximal activity (AC50) under setting [1] is 35.5 µM [rising, partial curve, poor fit].

In the case of `Cc1ccc(C2=CC(c3ccccc3C)n3c(nc4ccccc43)N2)cc1` (centres undefined), the AC50 by setting is: under setting [1], 2 µM [falling, full curve]; under setting [2], 15.8 µM [rising, partial curve, poor fit].

On to `CCOc1ccc(C2=NNC(c3cccs3)=Nc3ccc(OCC)cc32)cc1`, for which the AC50 under setting [1] is 29.1 µM [rising, single point].

As for `CC(C)C1=NN2C(=N)CC(=O)N=C2S1`, the half-maximal activity concentration (AC50) under setting [1] was 11.2 µM [rising, partial curve].

For `CN(C)CCCNC(=O)C[C@H]1C[C@H](C(=O)N2CCCCC2)[C@@]2(CCc3ccccc3)c3[nH]c4ccc(Cl)cc4c3CCN2C1=O`, the half-maximal activity concentration (AC50) under setting [1] is 29.1 µM [falling, single point].

Consider `Nc1nc2ccc(C(=O)Nc3ccccc3)cc2s1`, for which the concentration at half-maximal activity (AC50) under setting [1] is 15.8 µM [falling, single point].

Regarding `CSCCC(NS(=O)(=O)c1ccccc1)C(=O)OC(C)C(=O)Nc1ccc(Cl)cn1` (centres undefined), under setting [1], the AC50 was 5.17 µM [falling, full curve].

One may read the AC50 as the concentration at which the activity in the assay is half-maximal.
